Measurements from publication PMC7132798.
These are yes or no findings as the source states them, for the method shown. Binding seen in cells or lysates may run through a third protein. A yes stands for co-enrichment or nearness to the bait. Other partners may have been found. Tags and fused reporters may be left off the sequences shown.

Chains of the proteins cited; added tags and fusions are not shown.
UniProt Q6PB44: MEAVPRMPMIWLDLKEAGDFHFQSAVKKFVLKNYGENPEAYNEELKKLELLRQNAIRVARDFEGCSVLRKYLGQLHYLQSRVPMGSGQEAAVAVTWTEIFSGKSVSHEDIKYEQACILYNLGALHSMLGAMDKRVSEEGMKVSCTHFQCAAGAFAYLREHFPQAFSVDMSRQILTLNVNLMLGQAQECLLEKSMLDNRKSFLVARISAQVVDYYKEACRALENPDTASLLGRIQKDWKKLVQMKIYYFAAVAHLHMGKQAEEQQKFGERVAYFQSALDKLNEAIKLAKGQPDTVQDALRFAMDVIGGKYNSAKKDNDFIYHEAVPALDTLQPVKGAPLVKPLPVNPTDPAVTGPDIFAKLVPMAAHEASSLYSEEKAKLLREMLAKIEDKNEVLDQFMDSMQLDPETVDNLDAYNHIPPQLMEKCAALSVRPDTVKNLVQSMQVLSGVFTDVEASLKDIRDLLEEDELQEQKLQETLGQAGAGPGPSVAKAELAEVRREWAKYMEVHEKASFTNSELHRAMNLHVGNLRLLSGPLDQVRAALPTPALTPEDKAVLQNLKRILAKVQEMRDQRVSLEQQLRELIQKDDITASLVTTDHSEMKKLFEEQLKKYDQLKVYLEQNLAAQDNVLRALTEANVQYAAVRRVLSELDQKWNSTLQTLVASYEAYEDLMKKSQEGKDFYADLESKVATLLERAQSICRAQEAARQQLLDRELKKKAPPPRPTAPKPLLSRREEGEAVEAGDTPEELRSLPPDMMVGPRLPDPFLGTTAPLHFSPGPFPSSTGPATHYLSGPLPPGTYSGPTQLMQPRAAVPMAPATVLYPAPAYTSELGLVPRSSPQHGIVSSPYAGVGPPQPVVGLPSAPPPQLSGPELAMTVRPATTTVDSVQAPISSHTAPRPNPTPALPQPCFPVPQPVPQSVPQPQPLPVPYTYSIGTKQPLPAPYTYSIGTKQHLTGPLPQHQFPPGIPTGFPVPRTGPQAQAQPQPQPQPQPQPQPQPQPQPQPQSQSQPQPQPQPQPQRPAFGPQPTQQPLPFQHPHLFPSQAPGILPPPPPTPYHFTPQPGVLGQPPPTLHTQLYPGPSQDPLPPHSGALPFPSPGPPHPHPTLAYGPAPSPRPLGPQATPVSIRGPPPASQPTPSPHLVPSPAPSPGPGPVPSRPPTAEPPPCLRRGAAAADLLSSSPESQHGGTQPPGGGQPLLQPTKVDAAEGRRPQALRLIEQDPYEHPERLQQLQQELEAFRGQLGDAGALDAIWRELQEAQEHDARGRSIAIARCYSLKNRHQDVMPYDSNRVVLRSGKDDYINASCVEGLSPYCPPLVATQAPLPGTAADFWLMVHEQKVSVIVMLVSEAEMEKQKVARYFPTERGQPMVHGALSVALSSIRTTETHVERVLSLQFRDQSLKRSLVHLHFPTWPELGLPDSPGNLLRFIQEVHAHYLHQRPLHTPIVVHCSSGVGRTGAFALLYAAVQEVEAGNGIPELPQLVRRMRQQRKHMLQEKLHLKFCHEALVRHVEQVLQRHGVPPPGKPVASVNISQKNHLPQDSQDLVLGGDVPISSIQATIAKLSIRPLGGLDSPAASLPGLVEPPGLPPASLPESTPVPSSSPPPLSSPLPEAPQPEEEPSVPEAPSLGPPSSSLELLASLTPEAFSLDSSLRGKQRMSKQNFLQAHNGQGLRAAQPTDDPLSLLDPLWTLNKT

Molecular target: T1, Bicaudal-D1 (BICD1), endogenous (mouse (endogenous in N2A-FLAG-TrkB cells and ES-MNs)) (UniProt Q8BR07)
T1 sequence: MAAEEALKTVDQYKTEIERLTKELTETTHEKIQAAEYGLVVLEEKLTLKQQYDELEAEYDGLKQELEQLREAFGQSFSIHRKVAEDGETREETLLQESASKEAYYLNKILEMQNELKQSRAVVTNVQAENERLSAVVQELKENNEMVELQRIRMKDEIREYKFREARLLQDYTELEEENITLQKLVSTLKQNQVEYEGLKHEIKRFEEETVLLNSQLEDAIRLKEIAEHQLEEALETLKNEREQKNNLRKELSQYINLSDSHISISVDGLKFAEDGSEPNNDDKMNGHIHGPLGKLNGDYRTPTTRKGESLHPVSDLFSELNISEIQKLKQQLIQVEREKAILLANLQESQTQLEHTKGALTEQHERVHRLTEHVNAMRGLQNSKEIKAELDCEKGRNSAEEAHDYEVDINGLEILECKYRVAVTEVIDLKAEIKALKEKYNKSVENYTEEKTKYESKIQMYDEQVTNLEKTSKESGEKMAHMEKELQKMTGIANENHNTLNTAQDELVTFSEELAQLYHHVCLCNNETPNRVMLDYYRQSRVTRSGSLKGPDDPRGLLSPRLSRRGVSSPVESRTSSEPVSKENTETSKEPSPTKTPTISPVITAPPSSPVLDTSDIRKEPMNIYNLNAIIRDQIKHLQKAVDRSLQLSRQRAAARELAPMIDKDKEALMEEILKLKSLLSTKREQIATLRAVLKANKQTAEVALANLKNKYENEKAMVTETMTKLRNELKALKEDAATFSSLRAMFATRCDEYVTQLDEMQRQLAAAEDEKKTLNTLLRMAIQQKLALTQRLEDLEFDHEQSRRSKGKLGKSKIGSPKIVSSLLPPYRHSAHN
Assay: affinity purification with mass spectrometry; anti-BICD1 antibody on Protein-G Dynabeads; lysates of ES-MNs and N2A-FLAG-TrkB cells in 1% NP40 IP buffer, serum-starved 3 h, with or without 100 ng/ml BDNF for 15 min; LTQ-Orbitrap-XL

Row | binding | Substance
1 | binds | cytoplasmic dynein heavy chain
2 | binds | protein tyrosine phosphatase, non-receptor type 23 (PTPN23), endogenous (from UniProt Q6PB44 1-1692)
